# The other results are listed elsewhere or left out.
# B1: XTP3-B-MRH2 (Homo sapiens), Q96DZ1 (protein)
# chain: EFLSGSYCFRGGVGWWKYEFCYGKHVHQYHEDKDSGKTSVVVGTWNQEEHIEWAKKNTARAYHLQDDGTQTVRMVSHFYGNGDICDITDKPRQVTVKLKCKESDSPHAVTVYMLEPHSCQYILGVESPVICKILDTA
# Experiments:
# Assay in all cases: glycan array binding signal (z-score within array); higher = stronger binding
# Settings in all cases: glycan notation: IUPAC condensed, linker removed
# [1] = target: Fuc(a1-2)Gal(b1-4)[Fuc(a1-3)]GlcNAc
# In short: (§1)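 Arrays were curated from the Consortium for Functional Glycomics database, 3228 in total, and kept only where the protein sequence was available. Binding is expressed as a within-array Z-score. This score was averaged across arrays of the same protein sequence at different concentrations or buffers and across linkers, and negative values can be read as non-binding.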
# [2] = target: Fuc(a1-2)Gal(b1-4)[Fuc(a1-3)]GlcNAc(b1-2)Man(a1-3)[Fuc(a1-2)Gal(b1-4)[Fuc(a1-3)]GlcNAc(b1-2)Man(a1-6)]Man(b1-4)GlcNAc(b1-4)[Fuc(a1-6)]GlcNAc
# In short: as §1
# [3] = target: Fuc(a1-2)Gal(b1-4)[Fuc(a1-3)]GlcNAc(b1-2)[Fuc(a1-2)Gal(b1-4)[Fuc(a1-3)]GlcNAc(b1-4)]Man(a1-3)[Fuc(a1-2)Gal(b1-4)[Fuc(a1-3)]GlcNAc(b1-2)Man(a1-6)]Man(b1-4)GlcNAc(b1-4)GlcNAc
# In short: as §1
# [4] = target: Fuc(a1-2)Gal(b1-4)[Fuc(a1-3)]GlcNAc(b1-3)Gal(b1-4)[Fuc(a1-3)]GlcNAc
# In short: as §1
# [5] = target: Fuc(a1-2)Gal(b1-4)[Fuc(a1-3)]GlcNAc(b1-3)Gal(b1-4)[Fuc(a1-3)]GlcNAc(b1-3)Gal(b1-4)[Fuc(a1-3)]GlcNAc
# In short: as §1
# [6] = target: Fuc(a1-2)Gal(b1-4)[Fuc(a1-3)]GlcNAc(b1-3)GalNAc
# In short: as §1
# [7] = target: Fuc(a1-2)Gal(b1-4)[Fuc(a1-3)]GlcNAc(b1-3)[Neu5Ac(a2-6)Gal(b1-4)GlcNAc(b1-6)]Gal(b1-4)Glc
# In short: as §1
# [8] = target: Fuc(a1-2)Gal3S(b1-4)GlcNAc
# In short: as §1
# [9] = target: Fuc(a1-2)Gal6S(b1-3)GlcNAc
# In short: as §1
# [10] = target: Fuc(a1-2)Gal6S(b1-3)GlcNAc6S
# In short: as §1
# [11] = target: Fuc(a1-2)Gal6S(b1-4)Glc
# In short: as §1
# [12] = target: Fuc(a1-2)Gal6S(b1-4)Glc6S
# In short: as §1
# [13] = target: Fuc(a1-2)[Gal(a1-3)]Gal
# In short: as §1
# [14] = target: Fuc(a1-2)[Gal(a1-3)]Gal(b1-3)GalNAc
# In short: as §1
# [15] = target: Fuc(a1-2)[Gal(a1-3)]Gal(b1-3)GalNAc(b1-3)Gal(a1-4)Gal(b1-4)Glc
# In short: as §1
# [16] = target: Fuc(a1-2)[Gal(a1-3)]Gal(b1-3)GlcNAc
# In short: as §1
# [17] = target: Fuc(a1-2)[Gal(a1-3)]Gal(b1-3)GlcNAc(b1-2)Man(a1-3)[Fuc(a1-2)[Gal(a1-3)]Gal(b1-3)GlcNAc(b1-2)Man(a1-6)]Man(b1-4)GlcNAc(b1-4)GlcNAc
# In short: as §1
# [18] = target: Fuc(a1-2)[Gal(a1-3)]Gal(b1-3)GlcNAc(b1-2)Man(a1-3)[Fuc(a1-2)[Gal(a1-3)]Gal(b1-3)GlcNAc(b1-2)Man(a1-6)]Man(b1-4)GlcNAc(b1-4)[Fuc(a1-6)]GlcNAc
# In short: as §1
# [19] = target: Fuc(a1-2)[Gal(a1-3)]Gal(b1-3)GlcNAc(b1-3)GalNAc
# In short: as §1
# [20] = target: Fuc(a1-2)[Gal(a1-3)]Gal(b1-3)GlcNAc(b1-6)GalNAc
# In short: as §1
# [21] = target: Fuc(a1-2)[Gal(a1-3)]Gal(b1-4)Glc
# In short: as §1
# [22] = target: Fuc(a1-2)[Gal(a1-3)]Gal(b1-4)GlcNAc
# In short: as §1
# [23] = target: Fuc(a1-2)[Gal(a1-3)]Gal(b1-4)GlcNAc(b1-2)Man
# In short: as §1
# [24] = target: Fuc(a1-2)[Gal(a1-3)]Gal(b1-4)GlcNAc(b1-2)Man(a1-3)[Fuc(a1-2)[Gal(a1-3)]Gal(b1-4)GlcNAc(b1-2)Man(a1-6)]Man(b1-4)GlcNAc(b1-4)GlcNAc
# In short: as §1
# [25] = target: Fuc(a1-2)[Gal(a1-3)]Gal(b1-4)GlcNAc(b1-2)Man(a1-3)[Fuc(a1-2)[Gal(a1-3)]Gal(b1-4)GlcNAc(b1-2)Man(a1-6)]Man(b1-4)GlcNAc(b1-4)[Fuc(a1-6)]GlcNAc
# In short: as §1
# [26] = target: Fuc(a1-2)[Gal(a1-3)]Gal(b1-4)GlcNAc(b1-3)GalNAc
# In short: as §1
# [27] = target: Fuc(a1-2)[Gal(a1-3)]Gal(b1-4)GlcNAc(b1-3)[Fuc(a1-2)[Gal(a1-3)]Gal(b1-4)GlcNAc(b1-6)]GalNAc
# In short: as §1
# [28] = target: Fuc(a1-2)[Gal(a1-3)]Gal(b1-4)GlcNAc(b1-6)GalNAc
# In short: as §1
# [29] = target: Fuc(a1-2)[Gal(a1-3)]Gal(b1-4)[Fuc(a1-3)]Glc
# In short: as §1
# [30] = target: Fuc(a1-2)[Gal(a1-3)]Gal(b1-4)[Fuc(a1-3)]GlcNAc
# In short: as §1
# [31] = target: Fuc(a1-2)[Gal(a1-3)]Gal(b1-4)[Fuc(a1-3)]GlcNAc(b1-3)GalNAc
# In short: as §1
# [32] = target: Fuc(a1-2)[Gal(a1-4)]Gal(b1-4)GlcNAc
# In short: as §1
# [33] = target: Fuc(a1-2)[GalNAc(a1-3)]Gal
# In short: as §1
# [34] = target: Fuc(a1-2)[GalNAc(a1-3)]Gal(b1-3)GalNAc(a1-3)[Fuc(a1-2)]Gal(b1-4)GlcNAc
# In short: as §1
# [35] = target: Fuc(a1-2)[GalNAc(a1-3)]Gal(b1-3)GalNAc(b1-3)Gal(a1-4)Gal(b1-4)Glc
# In short: as §1
# [36] = target: Fuc(a1-2)[GalNAc(a1-3)]Gal(b1-3)GlcNAc
# In short: as §1
# [37] = target: Fuc(a1-2)[GalNAc(a1-3)]Gal(b1-3)GlcNAc(b1-2)Man(a1-3)[Fuc(a1-2)[GalNAc(a1-3)]Gal(b1-3)GlcNAc(b1-2)Man(a1-6)]Man(b1-4)GlcNAc(b1-4)GlcNAc
# In short: as §1
# [38] = target: Fuc(a1-2)[GalNAc(a1-3)]Gal(b1-3)GlcNAc(b1-2)Man(a1-3)[Fuc(a1-2)[GalNAc(a1-3)]Gal(b1-3)GlcNAc(b1-2)Man(a1-6)]Man(b1-4)GlcNAc(b1-4)[Fuc(a1-6)]GlcNAc
# In short: as §1
binder,measurement,setting,value
B1,glycan array binding signal (z-score),[1],-0.167
same,glycan array binding signal (z-score),[2],0.442
same,glycan array binding signal (z-score),[3],-0.624
same,glycan array binding signal (z-score),[4],-0.464
same,glycan array binding signal (z-score),[5],-0.667
same,glycan array binding signal (z-score),[6],-0.549
same,glycan array binding signal (z-score),[7],-0.589
same,glycan array binding signal (z-score),[8],-0.066
same,glycan array binding signal (z-score),[9],-2.05
same,glycan array binding signal (z-score),[10],-0.606
same,glycan array binding signal (z-score),[11],0.258
same,glycan array binding signal (z-score),[12],0.542
same,glycan array binding signal (z-score),[13],0.097
same,glycan array binding signal (z-score),[14],-0.386
same,glycan array binding signal (z-score),[15],0.773
same,glycan array binding signal (z-score),[16],0.169
same,glycan array binding signal (z-score),[17],2.72
same,glycan array binding signal (z-score),[18],0.171
same,glycan array binding signal (z-score),[19],-0.402
same,glycan array binding signal (z-score),[20],-0.515
same,glycan array binding signal (z-score),[21],1.19
same,glycan array binding signal (z-score),[22],-0.087
same,glycan array binding signal (z-score),[23],-0.997
same,glycan array binding signal (z-score),[24],2.95
same,glycan array binding signal (z-score),[25],-1.76
same,glycan array binding signal (z-score),[26],-0.169
same,glycan array binding signal (z-score),[27],1.8
same,glycan array binding signal (z-score),[28],-0.292
same,glycan array binding signal (z-score),[29],-0.501
same,glycan array binding signal (z-score),[30],-0.641
same,glycan array binding signal (z-score),[31],-0.696
same,glycan array binding signal (z-score),[32],-0.663
same,glycan array binding signal (z-score),[33],0.338
same,glycan array binding signal (z-score),[34],-0.387
same,glycan array binding signal (z-score),[35],-0.923
same,glycan array binding signal (z-score),[36],0.198
same,glycan array binding signal (z-score),[37],-0.31
same,glycan array binding signal (z-score),[38],-0.127

# A stretch of the results above:
binder,measurement,setting,value
B1,glycan array binding signal (z-score),[21],1.19
same,glycan array binding signal (z-score),[22],-0.087
